Experimental data taken from publication PMC12005117.
No constants are given. Whether binding was seen depends on the method and setting. In cells and extracts the contact can be indirect. Some results given as binding are weak or reduced against the parent protein; the word gives no strength.

Sequences of proteins named here, by UniProt entry; tags and fusion partners are left off.
UniProt Q9Z0E3: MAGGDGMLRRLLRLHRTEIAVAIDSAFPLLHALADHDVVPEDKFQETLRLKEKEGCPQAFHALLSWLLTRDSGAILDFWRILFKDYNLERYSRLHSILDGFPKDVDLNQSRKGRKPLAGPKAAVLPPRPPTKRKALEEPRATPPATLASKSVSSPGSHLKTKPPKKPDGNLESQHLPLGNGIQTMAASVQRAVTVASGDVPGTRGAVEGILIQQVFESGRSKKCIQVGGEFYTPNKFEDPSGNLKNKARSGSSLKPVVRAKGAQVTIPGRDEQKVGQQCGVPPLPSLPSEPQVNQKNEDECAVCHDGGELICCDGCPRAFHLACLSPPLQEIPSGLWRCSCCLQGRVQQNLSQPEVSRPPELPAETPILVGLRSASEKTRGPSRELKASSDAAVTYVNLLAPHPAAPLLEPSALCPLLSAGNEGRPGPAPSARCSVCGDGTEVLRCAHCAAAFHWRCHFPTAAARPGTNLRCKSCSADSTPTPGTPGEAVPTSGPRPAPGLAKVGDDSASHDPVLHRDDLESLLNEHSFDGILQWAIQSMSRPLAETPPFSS
UniProt Q15022: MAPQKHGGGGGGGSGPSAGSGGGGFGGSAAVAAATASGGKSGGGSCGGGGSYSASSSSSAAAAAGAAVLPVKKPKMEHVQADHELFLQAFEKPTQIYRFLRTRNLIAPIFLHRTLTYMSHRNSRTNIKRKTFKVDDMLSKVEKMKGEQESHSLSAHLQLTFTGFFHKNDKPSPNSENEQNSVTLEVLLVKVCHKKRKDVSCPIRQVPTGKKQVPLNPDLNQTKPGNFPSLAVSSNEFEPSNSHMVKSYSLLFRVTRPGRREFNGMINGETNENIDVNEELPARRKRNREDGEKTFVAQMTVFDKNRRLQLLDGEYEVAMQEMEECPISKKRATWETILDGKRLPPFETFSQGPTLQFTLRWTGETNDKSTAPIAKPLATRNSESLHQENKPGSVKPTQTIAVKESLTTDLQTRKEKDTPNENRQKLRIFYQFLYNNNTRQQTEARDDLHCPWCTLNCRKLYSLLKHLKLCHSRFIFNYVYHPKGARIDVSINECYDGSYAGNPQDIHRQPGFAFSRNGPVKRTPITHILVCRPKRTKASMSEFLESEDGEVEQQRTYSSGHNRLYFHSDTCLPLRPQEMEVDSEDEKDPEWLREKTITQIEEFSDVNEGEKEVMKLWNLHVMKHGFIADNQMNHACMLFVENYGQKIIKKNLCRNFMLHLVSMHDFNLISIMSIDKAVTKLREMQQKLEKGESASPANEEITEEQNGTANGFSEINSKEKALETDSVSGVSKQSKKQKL

Biological target: Flag-tagged murine Aire (murine) (UniProt Q9Z0E3)
Assay: co-IP; nuclear extract of 293FT cells expressing Flag-tagged murine Aire (nuclease digestion, then 420 mM NaCl, 5 mM EDTA); 2 ug anti-Flag M2 Ab or control mouse IgG overnight at 4°C, Dynabeads Protein G; washed four times with PBS 0.1% NP-40; western blot

Suz12 (from UniProt Q15022 1-739)
binding: binds
